Data taken from PubChem BioAssay AID504749, deposited by NCATS (2011).

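A panel of P. falciparum strains inside erythrocytes is exposed to compounds for three days, then a DNA-binding dye reports the amount of parasite DNA. Each compound was titrated across a series from about 0.000037 to 29 µM. The number is the fitted AC50, the concentration giving a half-maximal change in signal; a lower value means higher potency, whether the curve shows a decrease or an increase. Calls follow the curve class and fit quality: every row here is inconclusive, covering signal-raising curves and weak, poorly fitted, partial or highest-dose-only inhibition curves.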

Values are in µM. Every entry below has the call inconclusive. Only part of the assay is shown, chiefly results filed as inconclusive. Potencies fitted to partial, single-point or poorly fitting curves are rough.

| # | structure | tested on / at | Potency (µM) | curve as filed |
|---|---|---|---|---|
| 1 | `COc1cc(/C=C/C(=O)/C=C(O)/C=C/c2ccc(O)c(OC)c2)ccc1O` | CP217 | 10 | inhibitor, single point |
| 2 | `Oc1cc(Cl)ccc1Oc1ccc(Cl)cc1Cl` | CP335 | 12 | inhibitor, single point |
| 3 | `Oc1cc(Cl)ccc1Oc1ccc(Cl)cc1Cl` | CP185 | 17.78 | inhibitor, single point |
| 4 | `Oc1cc(Cl)ccc1Oc1ccc(Cl)cc1Cl` | CP201 | 19.01 | inhibitor, single point |
| 5 | `Oc1cc(Cl)ccc1Oc1ccc(Cl)cc1Cl` | CP265 | 11.22 | inhibitor, partial curve, poor fit |
| 6 | `Oc1cc(Cl)ccc1Oc1ccc(Cl)cc1Cl` | CP211 | 15.1 | inhibitor, single point |
| 7 | `Oc1cc(Cl)ccc1Oc1ccc(Cl)cc1Cl` | CP262 | 10.69 | inhibitor, single point |
| 8 | `Oc1cc(Cl)ccc1Oc1ccc(Cl)cc1Cl` | C2A | 17.78 | inhibitor, single point |
| 9 | `Oc1cc(Cl)ccc1Oc1ccc(Cl)cc1Cl` | CP250 | 15.85 | inhibitor, single point |
| 10 | `Oc1cc(Cl)ccc1Oc1ccc(Cl)cc1Cl` | CP256 | 10 | inhibitor, single point |
| 11 | `Oc1cc(Cl)ccc1Oc1ccc(Cl)cc1Cl` | CP247 | 10 | inhibitor, single point |
| 12 | `Oc1cc(Cl)ccc1Oc1ccc(Cl)cc1Cl` | CP329 | 16.94 | inhibitor, single point |
| 13 | `Oc1cc(Cl)ccc1Oc1ccc(Cl)cc1Cl` | CP315 | 19.01 | inhibitor, single point |
| 14 | `Oc1cc(Cl)ccc1Oc1ccc(Cl)cc1Cl` | CP291 | 15.1 | inhibitor, single point |
| 15 | `Oc1cc(Cl)ccc1Oc1ccc(Cl)cc1Cl` | CP325 | 12 | inhibitor, single point |
| 16 | `Oc1cc(Cl)ccc1Oc1ccc(Cl)cc1Cl` | CP268 | 15.1 | inhibitor, single point |
| 17 | `C1COC(NC(C2CC2)C2CC2)=N1` | C2A | 5.623 | inhibitor, partial curve |
| 18 | `C1COC(NC(C2CC2)C2CC2)=N1` | PC26 | 8.492 | inhibitor, single point |
| 19 | `C1COC(NC(C2CC2)C2CC2)=N1` | CP265 | 17.78 | inhibitor, single point |
| 20 | `C1COC(NC(C2CC2)C2CC2)=N1` | ATS95 | 6.31 | inhibitor, partial curve |
| 21 | `C1COC(NC(C2CC2)C2CC2)=N1` | P94_40 | 11.22 | inhibitor, single point |
| 22 | `C1COC(NC(C2CC2)C2CC2)=N1` | CP329 | 19.01 | inhibitor, partial curve, poor fit |
| 23 | `C1COC(NC(C2CC2)C2CC2)=N1` | CP215 | 19.01 | inhibitor, partial curve, poor fit |
| 24 | `C1COC(NC(C2CC2)C2CC2)=N1` | CP237 | 17.78 | inhibitor, single point |
| 25 | `C1COC(NC(C2CC2)C2CC2)=N1` | AA1029 | 11.22 | inhibitor, partial curve, poor fit |
| 26 | `C1COC(NC(C2CC2)C2CC2)=N1` | CP250 | 10 | inhibitor, single point |
| 27 | `C1COC(NC(C2CC2)C2CC2)=N1` | TAB165 | 11.22 | inhibitor, single point |
| 28 | `C1COC(NC(C2CC2)C2CC2)=N1` | TAB109 | 8.912 | inhibitor, partial curve |
| 29 | `C1COC(NC(C2CC2)C2CC2)=N1` | DIV14 | 19.01 | inhibitor, single point |
| 30 | `C1COC(NC(C2CC2)C2CC2)=N1` | P93_24 | 8.912 | inhibitor, single point |
| 31 | `C1COC(NC(C2CC2)C2CC2)=N1` | CP291 | 5.358 | inhibitor, partial curve, poor fit |
| 32 | `C1COC(NC(C2CC2)C2CC2)=N1` | ICS | 7.943 | inhibitor, partial curve, poor fit |
| 33 | `C1COC(NC(C2CC2)C2CC2)=N1` | CP191 | 10 | inhibitor, partial curve |
| 34 | `C1COC(NC(C2CC2)C2CC2)=N1` | CP252 | 10 | inhibitor, single point |
| 35 | `C1COC(NC(C2CC2)C2CC2)=N1` | CP194 | 15.1 | inhibitor, partial curve, poor fit |

Once more, the final 3:

* C1COC(NC(C2CC2)C2CC2)=N1 [CP191] : Potency 10 µM (inhibitor, partial curve)
* C1COC(NC(C2CC2)C2CC2)=N1 [CP252] : Potency 10 µM (inhibitor, single point)
* C1COC(NC(C2CC2)C2CC2)=N1 [CP194] : Potency 15.1 µM (inhibitor, partial curve, poor fit)